# Cleaved PARP after 72 h of treatment

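The test systems are human melanoma cell lines, treated with two drugs together for 72 h and then stained and imaged. Each value is the cleaved-PARP-positive fraction of nuclei relative to DMSO-treated wells, in %, so that 100 equals the control and higher values mean more apoptosis. Concentrations were fixed for each drug; these are the higher of two levels. No replicate spread is given; individual values may be noisy. The marker varies much from line to line, for technical or biological reasons.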
An unselected part of the screen is shown.
An entry leaves out what has no value listed here.

Drug key:
PF-562271: CN(c1ncccc1CNc1nc(Nc2ccc3c(c2)CC(=O)N3)ncc1C(F)(F)F)S(C)(=O)=O at 0.4 µM
everolimus: CO[C@H]1C[C@@H]2CC[C@@H](C)[C@@](O)(O2)C(=O)C(=O)N2CCCC[C@H]2C(=O)O[C@H]([C@H](C)C[C@@H]2CC[C@@H](OCCO)[C@H](OC)C2)CC(=O)[C@H](C)/C=C(\C)[C@@H](O)[C@@H](OC)C(=O)[C@H](C)C[C@H](C)/C=C/C=C/C=C/1C at 0.1 µM
CHIR-265: Cn1c(Nc2ccc(C(F)(F)F)cc2)nc2cc(Oc3ccnc(-c4ncc(C(F)(F)F)[nH]4)c3)ccc21 at 0.4 µM
TCS401: O=C(O)C(=O)Nc1sc2c(c1C(=O)O)CCNC2 at 8.33 µM
GSK650394: O=C(O)c1ccc(-c2c[nH]c3ncc(-c4ccccc4)cc23)cc1C1CCCC1 at 0.8 µM
ABT-263: CC1(C)CCC(c2ccc(Cl)cc2)=C(CN2CCN(c3ccc(C(=O)NS(=O)(=O)c4ccc(N[C@H](CCN5CCOCC5)CSc5ccccc5)c(S(=O)(=O)C(F)(F)F)c4)cc3)CC2)C1 at 2 µM
docetaxel: CC(=O)O[C@@]12CO[C@@H]1C[C@H](O)[C@@]1(C)C(=O)[C@H](O)C3=C(C)[C@@H](OC(=O)[C@H](O)[C@@H](NC(=O)OC(C)(C)C)c4ccccc4)C[C@@](O)([C@@H](OC(=O)c4ccccc4)[C@H]21)C3(C)C at 0.0005 µM
GW0742: Cc1cc(SCc2sc(-c3ccc(C(F)(F)F)c(F)c3)nc2C)ccc1OCC(=O)O at 10 µM
T0901317: O=S(=O)(c1ccccc1)N(CC(F)(F)F)c1ccc(C(O)(C(F)(F)F)C(F)(F)F)cc1 at 7 µM

{"drugs": "GW0742 + ABT-263", "SK-MEL-2": 183, "A375": 993, "C32": 101}
{"drugs": "PF-562271 + docetaxel", "SK-MEL-2": 1100, "A375": 194, "C32": 2370}
{"drugs": "everolimus + docetaxel", "SK-MEL-2": 1970, "A375": 462, "C32": 1520}
{"drugs": "CHIR-265 + GW0742", "SK-MEL-2": 281, "A375": 55.8, "C32": 135}
{"drugs": "PF-562271 + TCS401", "SK-MEL-2": 259, "A375": 44.7, "C32": 128}
{"drugs": "docetaxel + ABT-263", "SK-MEL-2": 3060, "A375": 404, "C32": 3540}
{"drugs": "CHIR-265 + ABT-263", "SK-MEL-2": 944, "A375": 49.4, "C32": 1520}
{"drugs": "TCS401 + CHIR-265", "SK-MEL-2": 158, "A375": 72.2, "C32": 123}
{"drugs": "ABT-263 + T0901317", "SK-MEL-2": 122, "A375": 385, "C32": 108}
{"drugs": "everolimus + T0901317", "SK-MEL-2": 118, "A375": 153, "C32": 90.0}
{"drugs": "T0901317 + docetaxel", "SK-MEL-2": 1100, "A375": 252, "C32": 129}
{"drugs": "TCS401 + T0901317", "SK-MEL-2": 64.7, "A375": 52.1, "C32": 185}
{"drugs": "ABT-263 + TCS401", "SK-MEL-2": 276, "A375": 413, "C32": 93.5}
{"drugs": "docetaxel + CHIR-265", "SK-MEL-2": 1890, "A375": 283, "C32": 886}
{"drugs": "TCS401 + docetaxel", "SK-MEL-2": 1230, "A375": 127, "C32": 111}
{"drugs": "T0901317 + GW0742", "SK-MEL-2": 130, "A375": 101, "C32": 99.4}
{"drugs": "GW0742 + GSK650394", "SK-MEL-2": 206, "A375": 103, "C32": 107}
{"drugs": "PF-562271 + GSK650394", "SK-MEL-2": 274, "C32": 122}
{"drugs": "TCS401 + GW0742", "SK-MEL-2": 86.2, "A375": 8.6, "C32": 161}
{"drugs": "ABT-263 + GSK650394", "SK-MEL-2": 546, "C32": 204}
{"drugs": "everolimus + GSK650394", "SK-MEL-2": 134, "C32": 110}
{"drugs": "CHIR-265 + GSK650394", "SK-MEL-2": 314, "C32": 187}
{"drugs": "docetaxel + GW0742", "SK-MEL-2": 1470, "A375": 160, "C32": 111}
{"drugs": "GW0742 + PF-562271", "SK-MEL-2": 205, "A375": 124, "C32": 110}
{"drugs": "T0901317 + CHIR-265", "SK-MEL-2": 153, "A375": 212, "C32": 348}
{"drugs": "PF-562271 + CHIR-265", "SK-MEL-2": 495, "A375": 448, "C32": 595}
{"drugs": "GSK650394 + docetaxel", "SK-MEL-2": 1260, "C32": 224}
{"drugs": "CHIR-265 + everolimus", "SK-MEL-2": 789, "A375": 143, "C32": 110}
{"drugs": "PF-562271 + everolimus", "SK-MEL-2": 44.2, "A375": 80.0, "C32": 1850}
{"drugs": "PF-562271 + ABT-263", "SK-MEL-2": 155, "A375": 258, "C32": 503}
{"drugs": "ABT-263 + everolimus", "SK-MEL-2": 369, "A375": 477, "C32": 436}
{"drugs": "everolimus + GW0742", "SK-MEL-2": 102, "A375": 50.4, "C32": 93.3}
{"drugs": "TCS401 + GSK650394", "SK-MEL-2": 138, "A375": 36.7, "C32": 87.3}

The last 3 entries again:

{"drugs": "ABT-263 + everolimus", "SK-MEL-2": 369, "A375": 477, "C32": 436}
{"drugs": "everolimus + GW0742", "SK-MEL-2": 102, "A375": 50.4, "C32": 93.3}
{"drugs": "TCS401 + GSK650394", "SK-MEL-2": 138, "A375": 36.7, "C32": 87.3}

Data from the primary screen of doi:10.1371/journal.pone.0140310, rounded.